Experimental data taken from patent publication US11661433B2, “Near-IR activatable fluorescent small molecules with dual modes of cytotoxicity” (VIRGINIA COMMONWEALTH UNIVERSITY, priority 2018, dated 2023).

Test: Singlet oxygen generation by DPBF method
Type: physicochemical
Details: near-IR light 720-740 nm

With `CC(=O)C(=C(C)O)C1=C(C=CC2=[N+](C)c3ccccc3C2(C)C)CCC1=CC=C1N(C)c2ccccc2C1(C)C.[Cl-]` [IR797-acac] the “t1/2^DPBF (decrease in DPBF absorbance at 415 nm)” value was 6 min and the “singlet oxygen quantum yield φΔ” value (aerated DMF, relative to methylene blue) was 0.017.
